# PubChem BioAssay AID1347075 (National Center for Advancing Translational Sciences (NCATS), 2019)
# About 5,500 (1.4%) of roughly 400,000 compounds were called active. The inconclusive results got no clear call from the source; some entries with a clear call stand among them for comparison. Calls come from the whole dose curve; as a rule, active = well fitted cell-killing curve with a large enough effect; inconclusive = small, poorly fitted or top-dose-only effect, or effect the other way; inactive = flat fitted curve, though single readings scatter. Potencies beside an inconclusive call are fits to weak or partial responses and may not hold up.
# Assay: qHTS assay for MDR1-selective chemotherapeutics: Primary screen using the parental adenocarcinoma cell KB-3-1; note: nearly all actives have a fitted effect of over 60% in size
# Conditions: KB-3-1 viability, CellTiter-Glo ATP luminescence, 72 h; activity change, negative = cytotoxic: at 46.1 µM (top of the series)
# Summary of the method: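 Here the drug-naive KB-3-1 line serves as comparator for MDR sub-line selectivity; cells received compound titrations, 72 h at 37 °C, then CellTiter-Glo readout.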
# % is set by controls: 0 for no effect and ±100 for the full control effect; potency is the fitted concentration of half-maximal effect.
Structure (SMILES),Potency,"activity change, negative = cytotoxic"
O=C1CCCN1CC(O)CS(=O)(=O)Cc1ccccc1Cl (centres undefined),inactive,
Cc1ccc(NC(=O)COc2cccc(Oc3ccccc3)c2)cc1S(=O)(=O)N1CCOCC1,active: 16.4 µM,
CCOC(=O)c1c(NC(=O)CSc2ncccn2)sc2c1CCN(Cc1ccccc1)C2,"inconclusive: 10.3 µM [cytotoxic, partial curve, poor fit]",
CCOc1ccc(-c2cc(C(=O)NN=C3CCN(C)CC3)[nH]n2)cc1,"inconclusive: 29.1 µM [rising, single point]",
CCN(c1ccccc1)S(=O)(=O)c1cccc(C(=O)NCC(c2cccs2)N2CCOCC2)c1 (centres undefined),"inconclusive: 18.4 µM [cytotoxic, single point]",
COc1ccccc1NC(=O)CSc1ccc2nnc(CCNC(=O)c3ccccc3)n2n1,"inconclusive: 29.1 µM [rising, single point]",
COc1ccc(N/N=C(\C=N\O)C(=O)c2ccc(OC)cc2)cc1,"inconclusive: 2.06 µM [cytotoxic, partial curve, poor fit]",
Cc1cc(C(=O)COC(=O)c2cc(Cl)c(O)c(Cl)c2)c(C)n1C,"inconclusive: 29.1 µM [cytotoxic, single point]",
CCCC(=O)NC(=S)Nc1c(C)cc(Br)cc1C,active: 18.4 µM,
CCN(CC)c1ccc(CN2CCCCCC2)cc1,"inconclusive: 2.91 µM [cytotoxic, partial curve, poor fit]",
COc1cccc(C(O)c2nc(-c3cccc(C#N)c3)cs2)c1 (centres undefined),"inconclusive: 14.6 µM [cytotoxic, full curve, poor fit]",
CC(=O)c1ccc(Oc2nc(C)nc3c2oc2ccccc23)cc1,active: 18.4 µM,
O=C(CCl)Nc1cc2[nH]c(=O)[nH]c2cc1Br,"inconclusive: 20.6 µM [cytotoxic, single point]",
Cc1ccc(S(=O)(=O)N2CCCC2)cc1C(=O)N1CCN(Cc2ccccc2)CC1,"inconclusive: 0.82 µM [rising, partial curve, poor fit]",
Cc1ccccc1OC(C)C(=O)Nc1ccc(S(=O)(=O)Nc2nccs2)cc1 (centres undefined),inactive,
CCOc1ccccc1NC(=O)C1C2CCC(O2)C1C(=O)O (centres undefined),"inconclusive: 29.1 µM [cytotoxic, single point]",
Cc1cc(C(=O)C(C)OC(=O)c2ccc(NC(=O)CC#N)cc2)c(C)n1-c1ccc(OC(F)F)cc1 (centres undefined),active: 2.91 µM,
CCN1CCN(C(c2cccs2)C(C)NC(=O)C(=O)N2CCCCC2)CC1 (centres undefined),"inconclusive: 14.6 µM [rising, partial curve, poor fit]",
COc1ccccc1C(C[N+](=O)[O-])c1c(N)n(C)c(=O)n(C)c1=O (centres undefined),"inconclusive: 3.66 µM [cytotoxic, partial curve, poor fit]",
O=C(C(=O)N1CCN(c2ccc(F)cc2)CC1)N1CCCCC1,"inconclusive: 23.1 µM [cytotoxic, partial curve, poor fit]",
CCc1ccc(C2C(C#N)=C(N)C(C#N)(C#N)C3=CCC(C(C)(C)C)CC32)cc1 (centres undefined),"inconclusive: 29.1 µM [cytotoxic, single point]",
COc1cccc(-c2nc(NC(C)C)c3ccccc3n2)c1O,"inconclusive: 25.9 µM [cytotoxic, single point]",
CCOc1ccccc1OCCCC(=O)NCCc1ccc(S(N)(=O)=O)cc1,"inconclusive: 29.1 µM [rising, single point]",

Structure (SMILES),Potency,"activity change, negative = cytotoxic"
COc1ccc(N2CCN(C(CNC(=O)C(=O)NCCc3ccccc3)c3cccnc3)CC2)cc1 (centres undefined),inactive,
O=C(Nc1nc2ccccc2n1CCN1CCOCC1)c1ccc(COc2ccccc2Br)o1,"inconclusive: 29.1 µM [cytotoxic, single point]",
CCOc1cccc(C(=O)Nc2ccc3ccccc3c2)c1,inactive,
CC(C)C[C@@H]1Cc2[nH]c(=S)[nH]c(=O)c2[C@H](CCc2ccccc2)O1,"inconclusive: 14.6 µM [cytotoxic, partial curve, poor fit]",
COc1ccc(C)cc1NC(=O)NCc1cccn1Cc1ccccc1,inactive,
CC(C)n1nnnc1C1c2ccccc2C(=O)N1Cc1ccc(F)cc1 (centres undefined),inactive,
O=C(COc1ccc(Cl)cc1)Nc1nnc2n1CCS2,"inconclusive: 7.31 µM [rising, partial curve]",
CC(C)CCN(C(=S)Nc1cccc(F)c1)C1CCN(C(C)C)CC1,"inconclusive: 16.4 µM [cytotoxic, single point]",
COCCN(C(=O)CCl)C(C(=O)NC1CCCCC1)c1ccccc1C (centres undefined),active: 13 µM,
COc1ccc(C)cc1NC(=O)CSc1nc2ccccc2nc1N1CCOCC1,"inconclusive: 16.4 µM [cytotoxic, single point]",
N#CC1=C(N)Oc2cc3ccccc3cc2C1c1cccs1 (centres undefined),active: 10 µM,
O=C(Nc1sc2c(c1C(=O)O)CCCC2)c1ccc(F)cc1,"inconclusive: 20.6 µM [cytotoxic, single point]",
COc1ccc(CCN(C)Cc2cccc3ccccc23)cc1OC,inactive,
COCCCNCCCCOc1ccc(Br)cc1C,"inconclusive: 32.6 µM [cytotoxic, single point]",
N#CCCN(C(=O)COc1ccc(Cl)cc1Cl)c1ccccc1,inactive,
CCOC(=O)[C@@H]1[C@H]2COc3ccccc3[C@@H]2N2C(=O)N(c3ccc(Br)cc3)C(=O)[C@@]12C,inactive,
Cc1cc(C(=O)CSc2nnc(NCc3ccccc3)s2)c(C)n1C,"inconclusive: 20.6 µM [cytotoxic, single point]",
CCN(c1ccccc1)S(=O)(=O)c1ccc(F)cc1,inactive,
CCN(Cc1ccccc1)c1ccc(/C=N/NC(=O)c2cccc(S(=O)(=O)N3CCOCC3)c2)cc1,"inconclusive: 16.4 µM [cytotoxic, single point]",
CC[n+]1c(C)cc(C)n1-c1ccccc1,"inconclusive: 20.6 µM [cytotoxic, single point]",
Cc1csc2nc(O)c(C(=O)NC3CCCCC3C)c(=O)n12 (centres undefined),"inconclusive: 23.1 µM [cytotoxic, partial curve, poor fit]",
O=C(C1CC(Cl)CN1S(=O)(=O)c1ccc(Cl)cc1)N1CCOCC1 (centres undefined),"inconclusive: 0.184 µM [rising, full curve]",
S=C(NCCN1CCOCC1)N1CCN(c2cccc(Cl)c2)CC1,"inconclusive: 18.4 µM [cytotoxic, partial curve, poor fit]",

Structure (SMILES),Potency,"activity change, negative = cytotoxic"
COc1ccc2oc(=O)c(-c3csc(Nc4ccc(O)cc4)n3)cc2c1,"inconclusive: 25.9 µM [cytotoxic, single point]",
O=C(c1nn2c(C(F)(F)F)cc(-c3ccco3)nc2c1Br)N1CCCc2ccccc21,"inconclusive: 18.4 µM [cytotoxic, single point]",
Nc1nc(=S)c2ncn([C@@H]3O[C@H](CO)[C@@H](O)[C@H]3O)c2[nH]1,"inconclusive: 0.651 µM [cytotoxic, full curve, poor fit]",
COC(=O)Nc1nc2c(s1)CCCC2,inactive,
CCCc1nc(N)c(C#N)c(-c2ccco2)c1CC,"inconclusive: 29.1 µM [cytotoxic, single point]",
CC(=O)Nc1cc(-c2ccccc2Cl)cn2c(-c3ccc(S(C)(=O)=O)cc3)cnc12,inactive,
CCN(CC)CCCNC(=O)Cn1ccc2ccccc2c1=O,inactive,
Cn1nccc1C(=O)N1CCN(c2ccccc2F)CC1,inactive,
NNC(=O)c1ccc(C(=O)N(c2ccccc2)c2ccccc2)cc1,inactive,
Cc1noc(C)c1COc1ccc(C(=O)OCC(=O)N2CC3(C)CC2CC(C)(C)C3)cc1 (centres undefined),"inconclusive: 23.1 µM [cytotoxic, single point]",
CCN(CC)S(=O)(=O)c1cc(NC(=O)COC(=O)c2ccc(NC(=O)CC#N)cc2)ccc1C,"inconclusive: 0.58 µM [rising, partial curve]",
COc1cccc(CNC(=O)Cc2ccc(-n3c(=O)[nH]c4ccccc4c3=O)cc2)c1,active: 4.11 µM,
N#Cc1ccc(C(=O)NCC2CCCCC2)cc1,"inconclusive: 1.16 µM [rising, partial curve, poor fit]",
COc1ccc(S(=O)(=O)N(CC(=O)Nc2cccc(C(F)(F)F)c2)c2ccc(C)cc2)cc1,"inconclusive: 29.1 µM [cytotoxic, single point]",
O=C(COC(=O)c1n[nH]c2ccccc12)Nc1ccc([N+](=O)[O-])cc1,"inconclusive: 4.61 µM [rising, single point]",
Cc1cc(C(=O)OCC(=O)N2CCc3ccccc32)c(C)o1,"inconclusive: 8.2 µM [rising, partial curve, poor fit]",
COc1ccc(/C=C/C=C2\NC(=S)NC2=O)cc1,"inconclusive: 23.1 µM [cytotoxic, single point]",
CCc1ccccc1NC(=O)CNC(=O)c1cccc(S(=O)(=O)N2CCN(Cc3ccccc3)CC2)c1,"inconclusive: 20.6 µM [cytotoxic, single point]",
O=C(NNC(=O)c1ccccc1O)c1ccccc1O,active: 2.59 µM,
COc1ccc(C)cc1-n1nnnc1SCc1cc(=O)n2cc(C)ccc2n1,"inconclusive: 9.2 µM [cytotoxic, partial curve]",
CCC(C)NC(=S)N(Cc1cc2cc(C)ccc2n2nnnc12)CC(C)(C)NC(C)C (centres undefined),"inconclusive: 29.1 µM [rising, single point]",
Cc1ccc(Cl)cc1S(=O)(=O)N1CCC(C(=O)NC2CCN(Cc3ccccc3)CC2)CC1,,inconclusive: -35.2%
CC(C)c1nnc(N2C(=O)c3oc4ccccc4c(=O)c3C2c2ccco2)s1 (centres undefined),"inconclusive: 20.6 µM [cytotoxic, single point]",

# Arranged by molar mass (largest number first): part of the list above.
Structure (SMILES),Potency,"activity change, negative = cytotoxic"
CCC(C)NC(=S)N(Cc1cc2cc(C)ccc2n2nnnc12)CC(C)(C)NC(C)C (centres undefined),"inconclusive: 29.1 µM [rising, single point]",
Cn1nccc1C(=O)N1CCN(c2ccccc2F)CC1,inactive,
CCN(CC)c1ccc(CN2CCCCCC2)cc1,"inconclusive: 2.91 µM [cytotoxic, partial curve, poor fit]",
